From patent US20100021918A1, “METHOD FOR ASSAYING ACTION OF ANTITUMOR AGENT USING SPLICING DEFECTS AS INDEX” (Eisai R&D Management Co., Ltd., priority 2007, published 2010)
Further values from the same series stand in other lists.

Tested on: human colon carcinoma cell strain WiDr
Assay: Microarray analysis (2), reviewed conditions, intron expression, Table 3
Assay type: cell-based
Protocol: WiDr cells were first suspended in RPMI1640 medium (containing 10% FBS, penicillin, and streptomycin) and seeded in a 10 cm dish (2×10^6 cells/dish). After an overnight culture in an incubator with 5% carbon dioxide gas at 37° C., the medium was changed with medium containing 14 nM of (8E,12E,14E)-7-((4-cycloheptylpiperazin-1-yl)carbonyl)oxy-3,6,16,21-tetrahydroxy-6,10,12,16,20-pentamethyl-18,19-epoxytricosa-8,12,14-trien-11-olide or containing vehicle alone. After cultured for additional six hours, TRI reagent (SIGMA) were added to the cells and the cells were harvested. RNA was purified in accordance with the protocol of TRI reagent, followed by further purification with RNeasy (QIAGEN). Absorbance at 260 nm was measured to quantify an amount of RNA. This experiment was repeated three times and RNA samples (n=3) were prepared.
Ribosomal RNA was removed from 1 μg of each total RNA of control cells (n=3) and cells with the treatment (n=3) by using RiboMinus Human/Mouse Transcriptome Isolation Kit (Invitrogen). Single stranded cDNA synthesis, double stranded cDNA synthesis, cRNA synthesis, second single stranded cDNA synthesis, cDNA fragmentation, and cDNA labeling in order were carried out for the total RNA from which ribosomal RNA was removed, by using GeneChip Whole Transcript Sense Target Labeling and Control Reagents (Affymetrix) to make a cDNA probe. The cDNA probe was used for hybridization with Human Exon 1.0 ST Array (Affymetrix). The array was washed and stained, and luminescence intensity was measured by a scanner.
Analysis conditions were reviewed in the data used in Example 3. Genes containing increased introns upon treatment with (8E,12E,14E)-7-((4-cycloheptylpiperazin-1-yl)carbonyl)oxy-3,6,16,21-tetrahydroxy-6,10,12,16,20-pentamethyl-18,19-epoxytricosa-8,12,14-trien-11-olide were identified.
In order to consider the analysis conditions, variations in the data from the samples with identical conditions were studied. […] It turned out that, by analyzing under conditions where the expression level was more than 100 and change in the expression level was more than five times, a probe set with increased expression can be extracted.
Probe sets showing that the normalized change in the level expression of the probe set in the group with the treatment was more than 5 times; the expression level of the probe set and the gene in the group with the treatment were more than 100; and probe set annotation was “extended, full, free”, were picked out. Welch's t-test was conducted with the probe sets extracted for the treated group and the control group to determine a p and q value. A gene containing the probe sets with the q value of less than 5% was determined as a candidate gene with increased expression level of the intron regions (Table 3).
In Table 3, for each gene evaluated, gene name (Gene Name), abbreviated name (Gene Symbol), accession number (Accession), alias name (Synonym), transcription cluster number in Human Exon 1.0 ST Array (Human Exon 1.0 ST Array Transcript Cluster ID), chromosome number (Chromosome), type of strand (Strand), start region (Start), stop region (Stop), and change in expression level (Fold Change) were respectively shown.

Compound: CCC(O)C(C)C1OC1CC(C)(O)/C=C/C=C(\C)C1OC(=O)CC(O)CCC(C)(O)C(OC(=O)N2CCN(C3CCCCCC3)CC2)/C=C/C1C (stereo not shown) [E7107, (8E,12E,14E)-7-((4-cycloheptylpiperazin-1-yl)carbonyl)oxy-3,6,16,21-tetrahydroxy-6,10,12,16,20-pentamethyl-18,19-epoxytricosa-8,12,14-trien-11-olide]
- Fold Change (gene HTRA2, change in expression level, treated vs control): 6.23
- Fold Change (gene IARS, change in expression level, treated vs control): 6.38
- Fold Change (gene ID2B //ID2, Transcript Cluster ID 2468622, intron expression, treated vs control): 9.91
- Fold Change (gene IDI1, change in expression level, treated vs control): 11.81
- Fold Change (gene IFNGR1, intron expression, treated vs control): 7.04
- Fold Change (gene IGF2BP2, change in expression level, treated vs control): 6.45
- Fold Change (gene IKZF5, intron expression, treated vs control): 7.38
- Fold Change (gene IMP4, intron expression, treated vs control): 7.31
- Fold Change (gene INCENP, Transcript Cluster ID 3333358, intron expression, treated vs control): 9.73
- Fold Change (gene INTS10, intron expression, treated vs control): 6.67
- Fold Change (gene IPO7, change in expression level, treated vs control): 11.19
- Fold Change (gene ISG20L1, intron expression, treated vs control): 7.47
- Fold Change (gene ITGA2, intron expression, treated vs control): 7.31
- Fold Change (gene ITGA6, change in expression level, treated vs control): 19.59
- Fold Change (gene ITGB1, change in expression level, treated vs control): 21.20
- Fold Change (gene IVNS1ABP, intron expression, treated vs control): 7.10
- Fold Change (gene JMJD2A, change in expression level, treated vs control): 6.23
- Fold Change (gene KBTBD4, change in expression level, treated vs control): 6.32
- Fold Change (gene KEAP1 // ADAMTS6, intron expression, treated vs control): 7.20
- Fold Change (gene KHDRBS1, Transcript Cluster ID 2328465): 5.15
- Fold Change (gene KIAA0090, Transcript Cluster ID 2399620, intron expression, treated vs control): 9.22
- Fold Change (gene KIAA0179, intron expression, treated vs control): 6.87
- Fold Change (gene KIAA0317, change in expression level, treated vs control): 14.49
- Fold Change (gene KIAA0406, change in expression level, treated vs control): 11.38
- Fold Change (gene KIAA0409, change in expression level, treated vs control): 5.98
- Fold Change (gene KIAA0690 // CRTAM, change in expression level, treated vs control): 11.86
- Fold Change (gene KIAA0859, change in expression level, treated vs control): 14.17
- Fold Change (gene KIAA0907, change in expression level, treated vs control): 6.45
- Fold Change (gene KIAA1429, Transcript Cluster ID 3145020, intron expression, treated vs control): 9.57
- Fold Change (gene KIAA1984 // C9orf86, Transcript Cluster ID 3194635, intron expression, treated vs control): 10.81
- Fold Change (gene KIF5B, intron expression, treated vs control): 7.04
- Fold Change (gene KIF11, Transcript Cluster ID 3258168, intron expression, treated vs control): 10.90
- Fold Change (gene KIF20A, Transcript Cluster ID 2830638): 5.08
- Fold Change (gene KIF22, change in expression level, treated vs control): 6.40
- Fold Change (gene KLF10, intron expression, treated vs control): 7.30
- Fold Change (gene KLHL20, intron expression, treated vs control): 6.90
- Fold Change (gene KPNA4, change in expression level, treated vs control): 6.31
- Fold Change (gene KPNB1, change in expression level, treated vs control): 13.68
- Fold Change (gene KRT18, change in expression level, treated vs control): 11.07
- Fold Change (gene KRT19, intron expression, treated vs control): 7.32
- Fold Change (gene LATS2, Transcript Cluster ID 3504526, intron expression, treated vs control): 9.28
- Fold Change (gene LBR, intron expression, treated vs control): 7.19
- Fold Change (gene LEPROTL1, intron expression, treated vs control): 7.06
- Fold Change (gene LIPG, Transcript Cluster ID 3787855): 5.34
- Fold Change (gene LMO7, Transcript Cluster ID 3494137, intron expression, treated vs control): 9.22
- Fold Change (gene LRPPRC, intron expression, treated vs control): 6.51
- Fold Change (gene LRRC59, Transcript Cluster ID 3762355, intron expression, treated vs control): 10.85
- Fold Change (gene MAEA, intron expression, treated vs control): 7.25
- Fold Change (gene MAK10, intron expression, treated vs control): 7.06
- Fold Change (gene MAML1, intron expression, treated vs control): 7.03
- Fold Change (gene MAN1A2 // UCA1, Transcript Cluster ID 2353881, intron expression, treated vs control): 9.61
- Fold Change (gene MAP3K4, change in expression level, treated vs control): 6.42
- Fold Change (gene MAP3K14, intron expression, treated vs control): 6.85
- Fold Change (gene MAPRE1, change in expression level, treated vs control): 12.37
- Fold Change (gene MARCKS, Transcript Cluster ID 2922215): 5.17
- Fold Change (gene MARK2, intron expression, treated vs control): 6.55
- Fold Change (gene MARK3, change in expression level, treated vs control): 6.50
- Fold Change (gene MATR3, intron expression, treated vs control): 7.26
- Fold Change (gene MBNL1, change in expression level, treated vs control): 6.08
- Fold Change (gene MBNL2, change in expression level, treated vs control): 19.31
- Fold Change (gene MCL1, Transcript Cluster ID 2434438, intron expression, treated vs control): 9.93
- Fold Change (gene MED28, Transcript Cluster ID 2720181, intron expression, treated vs control): 8.95
- Fold Change (gene MET, intron expression, treated vs control): 6.97
- Fold Change (gene METAP2 // FLJ11292, Transcript Cluster ID 3426917): 5.23
- Fold Change (gene MGC22014, change in expression level, treated vs control): 6.37
- Fold Change (gene MGC72104 // FRG1, Transcript Cluster ID 2756029): 5.13
- Fold Change (gene MIS12, Transcript Cluster ID 3707759): 5.13
- Fold Change (gene MKI67IP, change in expression level, treated vs control): 13.76
- Fold Change (gene MLL, Transcript Cluster ID 3351385): 5.10
- Fold Change (gene MLLT4, Transcript Cluster ID 2936857): 5.28
- Fold Change (gene MORF4 // MORF4L1, change in expression level, treated vs control): 11.90
- Fold Change (gene MORF4L2, intron expression, treated vs control): 7.03
- Fold Change (gene MPHOSPH10, Transcript Cluster ID 2488078): 5.16
- Fold Change (gene MRPL16, change in expression level, treated vs control): 5.99
- Fold Change (gene MRPL44, Transcript Cluster ID 2529782): 5.41
- Fold Change (gene MRPL46, intron expression, treated vs control): 7.23
- Fold Change (gene MRPL55, Transcript Cluster ID 2459438): 5.11
- Fold Change (gene MRPS2, intron expression, treated vs control): 7.02
- Fold Change (gene MRPS7, Transcript Cluster ID 3734760, intron expression, treated vs control): 10.41
- Fold Change (gene MRPS30, intron expression, treated vs control): 6.71
- Fold Change (gene MSN, change in expression level, treated vs control): 11.57
- Fold Change (gene MTAP, intron expression, treated vs control): 6.77
- Fold Change (gene MTMR1, intron expression, treated vs control): 6.97
- Fold Change (gene MTMR3, Transcript Cluster ID 3942179): 5.19
- Fold Change (gene MTMR12, intron expression, treated vs control): 7.00
- Fold Change (gene MUC20, change in expression level, treated vs control): 6.27
- Fold Change (gene MXD1, intron expression, treated vs control): 6.82
- Fold Change (gene NARG1, intron expression, treated vs control): 7.00
- Fold Change (gene NAT10, change in expression level, treated vs control): 12.51
- Fold Change (gene NCBP2, Transcript Cluster ID 2713074, intron expression, treated vs control): 9.23
- Fold Change (gene NCL, Transcript Cluster ID 2603460): 5.19
- Fold Change (gene NDUFS3, intron expression, treated vs control): 7.41
- Fold Change (gene NEDD4L // SEMA4G, Transcript Cluster ID 3789947): 5.30
- Fold Change (gene NET1, Transcript Cluster ID 3233182, intron expression, treated vs control): 10.35
- Fold Change (gene NF2, change in expression level, treated vs control): 6.29
- Fold Change (gene NFE2L2 // DKFZp451M2119, Transcript Cluster ID 2588827, intron expression, treated vs control): 9.48
- Fold Change (gene NFE2L3, change in expression level, treated vs control): 11.01
- Fold Change (gene NFXL1, intron expression, treated vs control): 6.55
- Fold Change (gene NHS, intron expression, treated vs control): 7.29
- Fold Change (gene NIP7, Transcript Cluster ID 3666686, intron expression, treated vs control): 9.64
- Fold Change (gene NIPBL // NRBP1, intron expression, treated vs control): 6.68
- Fold Change (gene NKIRAS2, intron expression, treated vs control): 6.70
- Fold Change (gene NOL1, Transcript Cluster ID 3442024, intron expression, treated vs control): 10.79
